Literature values as cited in patent US20080260845A1, “MULTIPLE ACTIVE DRUG RESIN CONJUGATE” (priority 2003, published 2008).
Where two headings read alike, the source gives them in different places.

Settings: compared with pseudoephedrine alone, cited from earlier work

In the case of `CN[C@@H](C)[C@@H](O)c1ccccc1` [pseudoephedrine], the availability of pseudoephedrine (after the first hour and a half) is listed as “substantial increase in availability” and the availability of pseudoephedrine (during the first hour and a half after dosage) is listed as “substantial decrease in the availability”.
